# This is one part of the list.
# B1: YghJ (Escherichia coli), E3PJ90 (protein)
# chain: MNKKFKYKKSLLAAILSATLLAGCDGGGSGSSSDTPPVDSGTGSLPEVKPDPTPNPEPTPEPTPDPEPTPEPIPDPEPTPEPEPEPVPTKTGYLTLGGSQRVTGATCNGESSDGFTFKPGEDVTCVAGNTTIATFNTQSEAARSLRAVEKVSFSLEDAQELAGSDDKKSNAVSLVTSSNSCPANTEQVCLTFSSVIESKRFDSLYKQIDLAPEEFKKLVNEEVENNAATDKAPSTHTSPVVPVTTPGTKPDLNASFVSANAEQFYQYQPTEIILSEGRLVDSQGYGVAGVNYYTNSGRGVTGENGEFSFSWGEAISFGIDTFELGSVRGNKSTIALTELGDEVRGANIDQLIHRYSTTGQNNTRVVPDDVRKVFAEYPNVINEIINLSLSNGATLGEGEQVVNLPNEFIEQFNTGQAKEIDTAICAKTDGCNEARWFSLTTRNVNDGQIQGVINKLWGVDTNYKSVSKFHVFHDSTNFYGSTGNARGQAVVNISNAAFPILMARNDKNYWLAFGEKRAWDKNELAYITEAPSIVRPENVTRETASFNLPFISLGQVGDGKLMVIGNPHYNSILRCPNGYSWNGGVNKDGQCTLNSDPDDMKNFMENVLRYLSNDRWLPDAKSSMTVGTNLETVYFKKHGQVLGNSAPFAFHKDFTGITVKPMTSYGNLNPDEVPLLILNGFEYVTQWGSDPYSIPLRADTSKPKLTQQDVTDLIAYMNKGGSVLIMENVMSNLKEESASGFVRLLDAAGLSMALNKSVVNNDPQGYPDRVRQRRSTPIWVYERYPAVDGKPPYTIDDTTKEVIWKYQQENKPDDKPKLEVASWQEEVEGKQVTQFAFIDEADHKTPESLAAAKQRILDAFPGLEVCKDSDYHYEVNCLEYRPGTDVPVTGGMYVPQYTQLDLSADTAKAMLQAADLGTNIQRLYQHELYFRTNGRQGERLNSVDLERLYQNMSVWLWNETKYRYEEGKEDELGFKTFTEFLNCYTNNAYVGTQCSAELKKSLIDNKMIYGEESSKAGMMNPSYPLNYMEKPLTRLMLGRSWWDLNIKVDVEKYPGVVNTNGETVTQNINLYSAPTKWFAGNMQSTGLWAPAQQEVSIESKSTVPVTVTVALADDLTGREKHEVSLNRPPRVTKTYDLKANDKVTFKVPYGGLIYIKGDSKEVQSADFTFTGVVKAPFYKDGKWQHDLNSPAPLGELESASFVYTTPKKNLNASNYTGGLEQFANDLDTFASSMNDFYGRDSEDGKHRMFTYKNLPGHKHRFANDVQISIGDAHSGYPVMNSSFSPNSTTLPTTPLNDWLIWHEVGHNAAETPLTVPGATEVANNVLALYMQDRYLGKMNRVADDITVAPEYLEESNGQAWARGGAGDRLLMYAQLKEWAEKNFDIKKWYPDGTPLPEFYSEREGMKGWNLFQLMHRKARGDEVSNDKFGGKNYCAESNGNAADTLMLCASWVAQTDLSEFFKKWNPGANAYQLPGASEMSFEGGVSQSAYNTLASLDLPKPEQGPETINQVTEHKMSAE
# What was measured:
# Test in all cases: glycan array binding signal (z-score within array); higher = stronger binding
# Conditions in all cases: glycan notation: IUPAC condensed, linker removed
# [1] = molecular target: Fuc(a1-2)[Gal(a1-3)]Gal(b1-4)GlcNAc(b1-2)Man(a1-3)[Fuc(a1-2)[Gal(a1-3)]Gal(b1-4)GlcNAc(b1-2)Man(a1-6)]Man(b1-4)GlcNAc(b1-4)[Fuc(a1-6)]GlcNAc
# In short: (§1)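 Glycan array data came from 3228 arrays in the Consortium for Functional Glycomics database, and only arrays with an available protein sequence were kept. Glycan names were put into IUPAC-condensed notation, and columns mapping to the same glycan were averaged. The binding signal is a within-array Z-score, averaged across arrays of one protein sequence run at different concentrations or buffers and across linkers. A negative Z-score can be read as non-binding.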
# [2] = molecular target: Fuc(a1-2)[Gal(a1-3)]Gal(b1-4)GlcNAc(b1-3)GalNAc
# In short: as §1
# [3] = molecular target: Fuc(a1-2)[Gal(a1-3)]Gal(b1-4)GlcNAc(b1-3)[Fuc(a1-2)[Gal(a1-3)]Gal(b1-4)GlcNAc(b1-6)]GalNAc
# In short: as §1
# [4] = molecular target: Fuc(a1-2)[Gal(a1-3)]Gal(b1-4)GlcNAc(b1-6)GalNAc
# In short: as §1
# [5] = molecular target: Fuc(a1-2)[Gal(a1-3)]Gal(b1-4)[Fuc(a1-3)]Glc
# In short: as §1
# [6] = molecular target: Fuc(a1-2)[Gal(a1-3)]Gal(b1-4)[Fuc(a1-3)]GlcNAc
# In short: as §1
# [7] = molecular target: Fuc(a1-2)[Gal(a1-3)]Gal(b1-4)[Fuc(a1-3)]GlcNAc(b1-3)GalNAc
# In short: as §1
# [8] = molecular target: Fuc(a1-2)[Gal(a1-4)]Gal(b1-4)GlcNAc
# In short: as §1
# [9] = molecular target: Fuc(a1-2)[GalNAc(a1-3)]Gal
# In short: as §1
# [10] = molecular target: Fuc(a1-2)[GalNAc(a1-3)]Gal(b1-3)GalNAc(a1-3)[Fuc(a1-2)]Gal(b1-4)GlcNAc
# In short: as §1
# [11] = molecular target: Fuc(a1-2)[GalNAc(a1-3)]Gal(b1-3)GalNAc(b1-3)Gal(a1-4)Gal(b1-4)Glc
# In short: as §1
# [12] = molecular target: Fuc(a1-2)[GalNAc(a1-3)]Gal(b1-3)GlcNAc
# In short: as §1
# [13] = molecular target: Fuc(a1-2)[GalNAc(a1-3)]Gal(b1-3)GlcNAc(b1-2)Man(a1-3)[Fuc(a1-2)[GalNAc(a1-3)]Gal(b1-3)GlcNAc(b1-2)Man(a1-6)]Man(b1-4)GlcNAc(b1-4)GlcNAc
# In short: as §1
# [14] = molecular target: Fuc(a1-2)[GalNAc(a1-3)]Gal(b1-3)GlcNAc(b1-2)Man(a1-3)[Fuc(a1-2)[GalNAc(a1-3)]Gal(b1-3)GlcNAc(b1-2)Man(a1-6)]Man(b1-4)GlcNAc(b1-4)[Fuc(a1-6)]GlcNAc
# In short: as §1
# [15] = molecular target: Fuc(a1-2)[GalNAc(a1-3)]Gal(b1-3)GlcNAc(b1-3)GalNAc
# In short: as §1
# [16] = molecular target: Fuc(a1-2)[GalNAc(a1-3)]Gal(b1-3)GlcNAc(b1-6)GalNAc
# In short: as §1
# [17] = molecular target: Fuc(a1-2)[GalNAc(a1-3)]Gal(b1-4)Glc
# In short: as §1
# [18] = molecular target: Fuc(a1-2)[GalNAc(a1-3)]Gal(b1-4)GlcNAc
# In short: as §1
# [19] = molecular target: Fuc(a1-2)[GalNAc(a1-3)]Gal(b1-4)GlcNAc(b1-2)Man
# In short: as §1
# [20] = molecular target: Fuc(a1-2)[GalNAc(a1-3)]Gal(b1-4)GlcNAc(b1-2)Man(a1-3)[Fuc(a1-2)[GalNAc(a1-3)]Gal(b1-4)GlcNAc(b1-2)Man(a1-6)]Man(b1-4)GlcNAc(b1-4)GlcNAc
# In short: as §1
# [21] = molecular target: Fuc(a1-2)[GalNAc(a1-3)]Gal(b1-4)GlcNAc(b1-2)Man(a1-3)[Fuc(a1-2)[GalNAc(a1-3)]Gal(b1-4)GlcNAc(b1-2)Man(a1-6)]Man(b1-4)GlcNAc(b1-4)[Fuc(a1-6)]GlcNAc
# In short: as §1
# [22] = molecular target: Fuc(a1-2)[GalNAc(a1-3)]Gal(b1-4)GlcNAc(b1-3)Gal(b1-4)GlcNAc
# In short: as §1
# [23] = molecular target: Fuc(a1-2)[GalNAc(a1-3)]Gal(b1-4)GlcNAc(b1-3)Gal(b1-4)GlcNAc(b1-3)Gal(b1-4)GlcNAc
# In short: as §1
# [24] = molecular target: Fuc(a1-2)[GalNAc(a1-3)]Gal(b1-4)GlcNAc(b1-3)GalNAc
# In short: as §1
# [25] = molecular target: Fuc(a1-2)[GalNAc(a1-3)]Gal(b1-4)GlcNAc(b1-3)[Fuc(a1-2)[GalNAc(a1-3)]Gal(b1-4)GlcNAc(b1-6)]GalNAc
# In short: as §1
# [26] = molecular target: Fuc(a1-2)[GalNAc(a1-3)]Gal(b1-4)GlcNAc(b1-6)GalNAc
# In short: as §1
# [27] = molecular target: Fuc(a1-2)[GalNAc(a1-3)]Gal(b1-4)[Fuc(a1-3)]GlcNAc
# In short: as §1
# [28] = molecular target: Fuc(a1-2)[GalNAc(a1-3)]Gal(b1-4)[Fuc(a1-3)]GlcNAc(b1-3)GalNAc
# In short: as §1
# [29] = molecular target: Fuc(a1-2)[GalNAc(a1-4)]Gal(b1-4)GlcNAc
# In short: as §1
# [30] = molecular target: Fuc(a1-2)[GalNAc(b1-3)]Gal
# In short: as §1
# Fuc(a1-3)GlcNAc = molecular target: Fuc(a1-3)GlcNAc
# In short: as §1
# [31] = molecular target: Fuc(a1-3)[Gal(b1-4)]Glc6S
# In short: as §1
# [32] = molecular target: Fuc(a1-3)[Gal(b1-4)]GlcNAc
# In short: as §1
# [33] = molecular target: Fuc(a1-3)[Gal(b1-4)]GlcNAc(b1-2)Man
# In short: as §1
# [34] = molecular target: Fuc(a1-3)[Gal(b1-4)]GlcNAc(b1-2)Man(a1-3)[Fuc(a1-3)[Gal(b1-4)]GlcNAc(b1-2)Man(a1-6)]Man(b1-4)GlcNAc(b1-4)GlcNAc
# In short: as §1
# [35] = molecular target: Fuc(a1-3)[Gal(b1-4)]GlcNAc(b1-2)Man(a1-3)[Fuc(a1-3)[Gal(b1-4)]GlcNAc(b1-2)Man(a1-6)]Man(b1-4)GlcNAc(b1-4)[Fuc(a1-6)]GlcNAc
# In short: as §1
# [36] = molecular target: Fuc(a1-3)[Gal(b1-4)]GlcNAc(b1-3)Gal(b1-3)[Fuc(a1-4)]GlcNAc
# In short: as §1
# [37] = molecular target: Fuc(a1-3)[Gal(b1-4)]GlcNAc(b1-3)Gal(b1-4)[Fuc(a1-3)]GlcNAc
# In short: as §1
# [38] = molecular target: Fuc(a1-3)[Gal(b1-4)]GlcNAc(b1-3)Gal(b1-4)[Fuc(a1-3)]GlcNAc(b1-3)Gal(b1-4)[Fuc(a1-3)]GlcNAc
# In short: as §1
# [39] = molecular target: Fuc(a1-3)[Gal(b1-4)]GlcNAc(b1-3)GalNAc
# In short: as §1
# [40] = molecular target: Fuc(a1-3)[Gal(b1-4)]GlcNAc(b1-6)GalNAc
# In short: as §1
# [41] = molecular target: Fuc(a1-3)[Gal(b1-4)]GlcNAc(b1-6)[Gal(b1-3)GlcNAc(b1-3)]Gal(b1-4)Glc
# In short: as §1
# [42] = molecular target: Fuc(a1-3)[Gal(b1-4)]GlcNAc6S
# In short: as §1
# [43] = molecular target: Fuc(a1-3)[Gal3S(b1-4)]Glc
# In short: as §1
# [44] = molecular target: Fuc(a1-3)[Gal3S(b1-4)]GlcNAc
# In short: as §1
binder,measurement,setting,value
B1,glycan array binding signal (z-score),[1],-0.117
same,glycan array binding signal (z-score),[2],-0.597
same,glycan array binding signal (z-score),[3],-0.682
same,glycan array binding signal (z-score),[4],0.424
same,glycan array binding signal (z-score),[5],-0.249
same,glycan array binding signal (z-score),[6],1.74
same,glycan array binding signal (z-score),[7],0.688
same,glycan array binding signal (z-score),[8],0.875
same,glycan array binding signal (z-score),[9],-0.322
same,glycan array binding signal (z-score),[10],-0.92
same,glycan array binding signal (z-score),[11],-0.408
same,glycan array binding signal (z-score),[12],-0.62
same,glycan array binding signal (z-score),[13],0.546
same,glycan array binding signal (z-score),[14],0.894
same,glycan array binding signal (z-score),[15],-0.694
same,glycan array binding signal (z-score),[16],-1.17
same,glycan array binding signal (z-score),[17],-2.03
same,glycan array binding signal (z-score),[18],0.444
same,glycan array binding signal (z-score),[19],0.302
same,glycan array binding signal (z-score),[20],1.27
same,glycan array binding signal (z-score),[21],0.686
same,glycan array binding signal (z-score),[22],-0.083
same,glycan array binding signal (z-score),[23],0.828
same,glycan array binding signal (z-score),[24],-1.59
same,glycan array binding signal (z-score),[25],-0.647
same,glycan array binding signal (z-score),[26],0.95
same,glycan array binding signal (z-score),[27],-0.532
same,glycan array binding signal (z-score),[28],0.864
same,glycan array binding signal (z-score),[29],-0.373
same,glycan array binding signal (z-score),[30],2.12
same,glycan array binding signal (z-score),Fuc(a1-3)GlcNAc,-0.259
same,glycan array binding signal (z-score),[31],-0.567
same,glycan array binding signal (z-score),[32],-0.2
same,glycan array binding signal (z-score),[33],-0.275
same,glycan array binding signal (z-score),[34],1.37
same,glycan array binding signal (z-score),[35],1.91
same,glycan array binding signal (z-score),[36],2.74
same,glycan array binding signal (z-score),[37],-0.973
same,glycan array binding signal (z-score),[38],-1.17
same,glycan array binding signal (z-score),[39],0.864
same,glycan array binding signal (z-score),[40],0.618
same,glycan array binding signal (z-score),[41],-0.268
same,glycan array binding signal (z-score),[42],-1.01
same,glycan array binding signal (z-score),[43],0.449
same,glycan array binding signal (z-score),[44],0.725

# Some of the entries so far, with tabs:
binder	measurement	setting	value
B1	glycan array binding signal (z-score)	[32]	-0.2
same	glycan array binding signal (z-score)	[33]	-0.275

# Reference: the supplement of paper PMC8728848
